The list shows a part of the results.

In this assay the test system is T1, CTL2-GFP (C. trachomatis L2/434/Bu, GFP-expressing).
T1 construct: L2/434/Bu, GFP-expressing
Details: species or system HeLa; Intracellular C. trachomatis growth in HeLa cells, bulk GFP fluorescence relative to DMSO. The settings on record: bulk GFP, single well; 28.5 h, 10 µM; inhibitor.
`O=C1NC2(CCC2)C(=O)N1Cc1nn(-c2ccccc2)c2c1CCC2` [CBK306383]: the “% of control remaining” value was 128.721%.
In the case of `Cc1cc(C(=O)Nc2cccc3cc[nH]c23)ccc1Cl` [CBK160078] it was 147.644%; in that of `Cc1cc(NS(=O)(=O)c2csc3ccccc23)n(C)n1` [CBK067251], 138.924%.
In the case of `Cn1nc2c(cc1=O)CN(C(=O)c1ccoc1)CC2` [CBK304330] it was 115.182%; in that of `CC1(C)CC(N2CN(C3CC(C)(C)NC(C)(C)C3)CN(C3CC(C)(C)NC(C)(C)C3)C2)CC(C)(C)N1` [CBK261985], 107.203%; in that of `O=C(NCCc1c[nH]cn1)c1ccccc1-n1cccc1` [CBK161000], 121.32%.
The result for `COc1nccnc1N1CCN(CCCC#N)CC1` [CBK084225] reads 105.813%; that for `Cc1cc(C)nc(N2CCC(C3CC=CCN(CCc4ccccc4)C3=O)CC2)n1` (centres unmarked) [CBK285575], 98.0009%.
For the compound `O=C(O)CCc1ccc(-c2cccs2)n1-c1ccc(Cl)c(Cl)c1` [CBK264797], the “% of control remaining” value stood at 129.912%.
On to `Cc1ccc(NC(=O)NC(=O)C2CCN(S(C)(=O)=O)CC2)cc1` [CBK034863], for which the “% of control remaining” value was found to be 100%.
As to `CCCCOc1ccc(-c2nnn(C(C)C(=O)O)n2)cc1` (centres unmarked) [CBK070540], the “% of control remaining” value came to 61.2591%.
In the case of `COc1ccc(CNC(=O)C2CCCN(S(=O)(=O)c3cccs3)C2)cc1` (centres unmarked) [CBK304628] it was 113.47%; in that of `COc1ccc(OC)c(NC(=O)c2ccc3nccnc3c2)c1` [CBK268997], 135.469%; in that of `CCc1ccc(Nc2nc(N)nc(CN3CCN(c4ccccn4)CC3)n2)cc1` [CBK270064], 93.6721%.
Regarding `COc1cccc(OC)c1OCCN1CCC(CNC(=O)Nc2cccc(C(F)(F)F)c2)CC1` [CBK051512T], the “% of control remaining” value is recorded as 121.008%.
Consider `CN1CC(c2ccccc2)C2(CCNCC2)C1` (centres unmarked) [CBK282225], for which the “% of control remaining” value worked out at 106.158%.
In the case of `O=C(c1cccnc1)N1CCN(S(=O)(=O)c2ccccc2[N+](=O)[O-])CC1` [CBK264227] it was 100%.
In the case of `CCOC(=O)c1c(NS(=O)(=O)Cc2ccccc2[N+](=O)[O-])sc2c1CCCC2` [CBK004651] it was 112.98%.
For `COc1cc(CN2CCN(c3ccccn3)CC2)ccc1O` [CBK261537], the “% of control remaining” value was determined as 98.5049%.
For `O=C(C1CCC1)N1CCC(c2nnc(-c3ccsc3)o2)CC1` [CBK283405], the “% of control remaining” value came to 98.4131%.
The result for `O=C(Nc1cccnc1)c1cnc(-c2ccc(Cl)cc2)c(-c2cccnc2)c1` [CBK037568] reads 98.6822%; that for `CC1(C)C=Cc2cc(/C(N)=N/O)ccc2O1` [CBK006095], 118.517%; that for `CN1CC(=O)N(CC(=O)N2CC=C(c3ccccc3)CC2)c2ccccc2C1=O` [CBK294433], 133.467%.
In the case of `O=C(O)c1cc(C(=O)O)cc(N2C(=O)C3C4C=CC(C4)C3C2=O)c1` (centres unmarked) [CBK261193] it was 100.017%; in that of `CC(C)c1ccc(NC(=O)CSc2nnc(Cc3cccc4ccccc34)o2)cc1` [CBK267371], 129.946%.
The result for `CN1C(=O)CC2(C1=O)C(=O)N(Cc1ccc3ccccc3n1)c1ccc(Cl)cc12` (centres unmarked) [CBK075494] reads 95.531%; that for `O=[N+]([O-])c1ccc(CN2CCC(N3CCN(CCO)CC3)CC2)cc1` [CBK264621G], 118.977%; that for `COCc1cc(C[C@@H]2C[C@H](NC(=O)C(C)(C)C)C2(C)C)no1` [CBK289251], 137.118%.
For the compound `CC(O)CNc1nccnc1-c1ccc(S(C)(=O)=O)cc1` (centres unmarked) [CBK037669], the “% of control remaining” value is reported as 113.167%.
The result for `COCCN(Cc1cnn(C)c1)C(=O)c1nc2ccccn2c1F` [CBK306892] reads 133.932%; that for `COc1cc2c(cc1OC)C(C)N(S(=O)(=O)c1cn(C)cn1)CC2` (centres unmarked) [CBK057314], 134.928%.
As for `Cc1cc(N2CCCC(C(=O)N3CCOCC3)C2)nc(N)n1` (centres unmarked) [CBK305985], the “% of control remaining” value turned out to be 120.39%.
In the case of `Cc1ccn(CCNC(=O)C2CCC(=O)N(CCc3ccccn3)C2)n1` (centres unmarked) [CBK306998] it was 76.6957%; in that of `O=C(CN1C(=O)c2ccccc2C1=O)N1CCN(Cc2ccc3c(c2)OCO3)CC1` [CBK074846], 93.3197%.
The result for `CN(CCN1CCCC1)c1nccc(N2CCN[C@H]3CS(=O)(=O)C[C@H]32)n1` [CBK306692] reads 126.016%.
The result for `COc1cccc(CCC(=O)n2ccn(-c3ccc(N(C)C)cc3)c2=O)c1` [CBK106609] reads 122.525%; that for `CN1C(=O)c2ccccc2OCCCCC[C@H]2NCCC[C@H]21` [CBK292075], 111.571%.
Consider `Cn1nc(C(C)(C)C)c2cc(C(=O)N3CCCc4occc4C3)cnc21` [CBK304713], for which the “% of control remaining” value worked out at 118.274%.
As for `COc1ccc(C(NC(=O)COc2c(Cl)cc(C(=O)O)cc2Cl)C(C)C)cc1` (centres unmarked) [CBK295344], the “% of control remaining” value came out at 152.738%.
The result for `CCn1nc(C)c(C2NC(=O)c3ccccc3N2)c1C` (centres unmarked) [CBK288214] reads 118.939%; that for `COc1ccc(CCNc2ncnc3sc4c(c23)CCCCC4)cc1OC` [CBK074384], 110.979%; that for `Cc1ccc(NS(=O)(=O)c2cccc(C(=O)NS(=O)(=O)c3ccc(F)cc3F)c2)cc1` [CBK297776], 152.596%.
As for `O=C(CCN1CCOCC1)NNC(=O)Nc1cccc(C(F)(F)F)c1` [CBK269017], the “% of control remaining” value is on record as 86.9436%.
On to `O=C(C1CCCC1)N1CCc2nc(-c3ccccc3)[nH]c(=O)c2C1` [CBK282331], for which the “% of control remaining” value stood at 109.9%.
In the case of `CC(C)Oc1ccccc1-c1nnc(SCC(=O)O)[nH]1` [CBK262702] it was 121.184%; in that of `Cc1cc(-c2nccnc2NCc2cccc(Cl)c2)cc(C)c1O` [CBK036646], 117.334%.
In the case of `O=C(/C=C/c1ccccc1[N+](=O)[O-])NCCN1CCOCC1` [CBK265596] it was 100%; in that of `N#Cc1[nH]nnc1-c1ccc(OC(F)(F)F)cc1` [CBK017386], 125.622%; in that of `Oc1cccc(Sc2cc(C(F)(F)F)ccn2)c1` [CBK115273], 124.298%.
For the compound `Cc1ccc2c(c1)CN(C(=O)C1CC1C)CC1(CCN(C)CC1)O2` (centres unmarked) [CBK284833], the “% of control remaining” value came to 111.021%.
In the case of `CC1(CNC(=O)c2cc(-c3cccc(F)c3)no2)COC1` [CBK281751] it was 149.675%; in that of `CS(=O)(=O)Nc1ccc2c(O)c(C(=O)NCc3ccc(Cl)cc3)c(=O)[nH]c2c1` [CBK017559], 134.145%; in that of `CC(C)(C)OC(=O)N1CCCC1C1COc2ccccc2C1=O` (centres unmarked) [CBK281579], 131.182%.
In the case of `N#CCCN(C(=O)NCCN1CCOCC1)C1CCCCC1` [CBK156357] it was 93.0366%.
The result for `O=C(Nc1ncccc1Cl)c1ccc(F)cc1` [CBK288215] reads 116.745%; that for `O=C(N/N=C/c1cccc(Oc2ccccc2)c1)c1ccncc1` [CBK261955], 119.583%.
Consider `COCCOCCCC(=O)OCC1Cc2cc(F)ccc2O1` (centres unmarked) [CBK304886], for which the “% of control remaining” value is reported as 86.313%.
Consider `CNS(=O)(=O)c1ccc(NC(=O)c2cc(-c3ccc4c(c3)OCO4)nc3ccccc23)cc1` [CBK267735], for which the “% of control remaining” value came to 134.152%.
For the compound `O=C(Cn1nc(-c2cc3c(s2)CCC3)oc1=O)NC1CC1` [CBK283800], the “% of control remaining” value is reported as 96.0988%.
In the case of `COc1ccc(N(CC(=O)Nc2c(F)cccc2F)S(=O)(=O)c2ccccc2)cc1` [CBK266883] it was 127.888%; in that of `O=C(CSc1nc2ccccc2n1Cc1ccccc1)N/N=C/c1ccco1` [CBK263174], 131.124%.
In the case of `Nc1nc2ccc(-c3nc4ccccc4o3)cc2s1` [CBK287846] it was 86.3396%.
In the case of `CCOC(=O)Cc1cc(O)nc(NC(=N)Nc2ccc(C)cc2C)n1` [CBK264986] it was 118.277%; in that of `CCOC(=O)c1cc(C(C)C)sc1NC(=O)C1C2C=CC(C2)C1C(=O)O` (centres unmarked) [CBK265417], 114.119%.
`CN1CCN(NC(=O)COc2ccc(-c3ccccc3)cc2)CC1` [CBK268117]: the “% of control remaining” value was determined as 89.2031%.
Regarding `COc1ccc(Cl)cc1NC(=O)C1CCCN1S(=O)(=O)c1ccc(F)cc1` (centres unmarked) [CBK069866], the “% of control remaining” value came out at 101.668%.
As for `N#Cc1ccc(C(=O)NCC2(N3CCOCC3)CCSC2)cc1` (centres unmarked) [CBK305602], the “% of control remaining” value was 129.056%.
Consider `COc1ccc(NC(=O)NC(=O)c2ccc(Cl)cc2)c(OC)c1` [CBK269462], for which the “% of control remaining” value amounted to 163.561%.
In the case of `COc1ccc(Nc2cc(-c3ccc(CNC(=O)OC(C)(C)C)cc3)ncn2)c(OC)c1` [CBK090757] it was 147.428%; in that of `CCN1C(=O)CC2(C1=O)C(=O)N(CCCN(C)S(C)(=O)=O)c1ccccc12` (centres unmarked) [CBK075519], 143.951%.
The result for `Cc1nnnn1-c1cc(NC(=O)NCCN2CCOCC2)ccc1F` [CBK306246] reads 133.289%; that for `CCc1nnc(SCC(=O)Nc2ccc(CN3CCOCC3)cc2)[nH]1` [CBK306097], 98.9257%.
As to `O=C(CN1CCCCC1)Nc1ccc(NC(=O)CN2CCCCC2)c(Cl)c1` [CBK264173], the “% of control remaining” value is given as 129.775%.
In the case of `CC1Cc2cc(C(=O)N3CCCCC3CN(C)C)ccc2O1` (centres unmarked) [CBK282193] it was 121.021%; in that of `Cc1[nH]c(=O)[nH]c(=O)c1Cc1ccccc1` [CBK113244], 97.0959%; in that of `Cc1[nH]c2ccccc2c1C(CC(=O)c1ccc(Br)cc1)C(=O)O` (centres unmarked) [CBK269480], 142.701%.
The result for `O=C(NC(=S)Nc1ccc(OCc2ccccc2)cc1)c1cccnc1` [CBK266224] reads 145.543%; that for `COc1cc(C)nc(N2CCN(C(=O)CCc3ccsc3)CC2)n1` [CBK304572], 113.47%; that for `COC(=O)c1sc2ncccc2c1NS(=O)(=O)c1cc(Br)c(Cl)s1` [CBK049973], 109.093%.
With `COc1cnc(-c2cnn(C)c2)c(NC(=O)c2cc(C)oc2C)n1` [CBK145218], the “% of control remaining” value turned out to be 126.832%.

These data come from PMC12040169 (PLOS Biology, 2025).
